Laboratory results as given in patent US20130045922A1.
Results are given in words; binding and its absence hold for the method and conditions named. Some binding calls cover weakened binding; strength is not graded here.

By UniProt entry, the sequences of proteins in these tests, tags left out. Where a name states a change or a piece, a line headed by the entry shows the natural chain unless it says otherwise. Chains listed by the source or under a name are the forms on record and can include a tag or linker.
hVEGF (P15692, form named): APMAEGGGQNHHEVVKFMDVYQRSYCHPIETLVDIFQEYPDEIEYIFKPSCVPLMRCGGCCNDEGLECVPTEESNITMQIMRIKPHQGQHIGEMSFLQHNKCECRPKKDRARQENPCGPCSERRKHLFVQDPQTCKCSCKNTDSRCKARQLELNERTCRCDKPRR

Legend:
[1] = molecular target: hVEGF (human) (UniProt P15692); test: ELISA and dot blot with synthesized peptides
[2] = molecular target: hVEGF (human) (UniProt P15692); test: spot peptide array probed with hVEGF (FIG. 1B legend)
[3] = molecular target: hVEGF (human) (UniProt P15692); test: Table 1, column 'VEGF binding' (spot peptide array with hVEGF; ELISA and dot blot)

Measured: binding

LCGNSFSGGQPS [Peptide #3 (…)]
binds: [1] | [2] | [3]

ITNNTSSVIIEE [Peptide #122 (…)]
binds: [1] | [2] | [3]

DRVQRQTTTVVA [Peptide #237 (…)]
binds: [1] | [2] | [3]

CSFAYDLEAKANSLPPGNLRN [Peptide #640 (…)]
binds: [1] | [2] | [3]

PNIIPVLDEIKS [Peptide #42 (…)]
binds: [1] | [2] | [3]

LCGVCGYDRHAT [Peptide #77 (…)]
binds: [1] | [2] | [3]
